Results on 1 substance are retold here after article PMC5958119.

The chains behind the UniProt entries cited, without tags or fusion partners.
UniProt O88382: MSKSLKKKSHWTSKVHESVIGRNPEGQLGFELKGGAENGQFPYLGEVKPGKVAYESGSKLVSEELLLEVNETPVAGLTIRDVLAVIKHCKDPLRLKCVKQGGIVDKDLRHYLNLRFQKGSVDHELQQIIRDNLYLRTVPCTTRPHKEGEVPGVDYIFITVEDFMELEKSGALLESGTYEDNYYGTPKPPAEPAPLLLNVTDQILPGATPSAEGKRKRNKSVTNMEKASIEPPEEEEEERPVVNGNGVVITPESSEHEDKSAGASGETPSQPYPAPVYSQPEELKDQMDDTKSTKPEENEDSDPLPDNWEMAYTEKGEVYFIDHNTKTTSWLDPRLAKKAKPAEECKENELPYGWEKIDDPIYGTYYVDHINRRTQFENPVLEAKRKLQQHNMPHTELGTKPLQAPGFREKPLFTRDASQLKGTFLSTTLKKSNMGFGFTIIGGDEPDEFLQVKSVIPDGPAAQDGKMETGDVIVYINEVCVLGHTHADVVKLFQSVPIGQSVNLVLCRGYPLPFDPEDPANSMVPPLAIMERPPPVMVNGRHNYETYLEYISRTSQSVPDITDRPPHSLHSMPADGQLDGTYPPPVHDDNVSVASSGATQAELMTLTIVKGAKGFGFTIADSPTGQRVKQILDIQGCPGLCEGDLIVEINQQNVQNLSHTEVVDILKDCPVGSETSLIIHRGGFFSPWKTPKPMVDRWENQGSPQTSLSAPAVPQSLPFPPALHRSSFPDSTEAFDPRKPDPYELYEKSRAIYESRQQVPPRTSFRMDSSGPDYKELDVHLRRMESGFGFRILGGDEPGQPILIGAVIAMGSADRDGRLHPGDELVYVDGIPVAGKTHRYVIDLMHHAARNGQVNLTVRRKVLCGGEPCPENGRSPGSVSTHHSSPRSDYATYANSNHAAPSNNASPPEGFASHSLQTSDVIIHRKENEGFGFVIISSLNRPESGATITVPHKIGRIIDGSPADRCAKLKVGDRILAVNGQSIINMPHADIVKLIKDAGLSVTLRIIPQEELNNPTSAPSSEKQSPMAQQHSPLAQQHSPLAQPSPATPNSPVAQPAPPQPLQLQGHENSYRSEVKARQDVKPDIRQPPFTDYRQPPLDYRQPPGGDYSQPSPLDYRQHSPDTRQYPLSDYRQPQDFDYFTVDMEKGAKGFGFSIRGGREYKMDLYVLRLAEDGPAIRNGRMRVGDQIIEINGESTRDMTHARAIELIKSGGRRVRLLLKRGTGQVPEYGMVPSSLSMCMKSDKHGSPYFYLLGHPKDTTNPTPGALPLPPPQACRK

Where a chain is given by its changes, count along the chain named. No constants are given. Whether binding was seen depends on the method and setting. In cells and extracts the contact can be indirect. Some binding calls cover weakened binding; strength is not graded here.

Test [1] concerns the target T1, TNS2 mutant p.Ile858Met (not stated (human or mouse cDNA cloned)) (UniProt Q63HR2).
T1 sequence: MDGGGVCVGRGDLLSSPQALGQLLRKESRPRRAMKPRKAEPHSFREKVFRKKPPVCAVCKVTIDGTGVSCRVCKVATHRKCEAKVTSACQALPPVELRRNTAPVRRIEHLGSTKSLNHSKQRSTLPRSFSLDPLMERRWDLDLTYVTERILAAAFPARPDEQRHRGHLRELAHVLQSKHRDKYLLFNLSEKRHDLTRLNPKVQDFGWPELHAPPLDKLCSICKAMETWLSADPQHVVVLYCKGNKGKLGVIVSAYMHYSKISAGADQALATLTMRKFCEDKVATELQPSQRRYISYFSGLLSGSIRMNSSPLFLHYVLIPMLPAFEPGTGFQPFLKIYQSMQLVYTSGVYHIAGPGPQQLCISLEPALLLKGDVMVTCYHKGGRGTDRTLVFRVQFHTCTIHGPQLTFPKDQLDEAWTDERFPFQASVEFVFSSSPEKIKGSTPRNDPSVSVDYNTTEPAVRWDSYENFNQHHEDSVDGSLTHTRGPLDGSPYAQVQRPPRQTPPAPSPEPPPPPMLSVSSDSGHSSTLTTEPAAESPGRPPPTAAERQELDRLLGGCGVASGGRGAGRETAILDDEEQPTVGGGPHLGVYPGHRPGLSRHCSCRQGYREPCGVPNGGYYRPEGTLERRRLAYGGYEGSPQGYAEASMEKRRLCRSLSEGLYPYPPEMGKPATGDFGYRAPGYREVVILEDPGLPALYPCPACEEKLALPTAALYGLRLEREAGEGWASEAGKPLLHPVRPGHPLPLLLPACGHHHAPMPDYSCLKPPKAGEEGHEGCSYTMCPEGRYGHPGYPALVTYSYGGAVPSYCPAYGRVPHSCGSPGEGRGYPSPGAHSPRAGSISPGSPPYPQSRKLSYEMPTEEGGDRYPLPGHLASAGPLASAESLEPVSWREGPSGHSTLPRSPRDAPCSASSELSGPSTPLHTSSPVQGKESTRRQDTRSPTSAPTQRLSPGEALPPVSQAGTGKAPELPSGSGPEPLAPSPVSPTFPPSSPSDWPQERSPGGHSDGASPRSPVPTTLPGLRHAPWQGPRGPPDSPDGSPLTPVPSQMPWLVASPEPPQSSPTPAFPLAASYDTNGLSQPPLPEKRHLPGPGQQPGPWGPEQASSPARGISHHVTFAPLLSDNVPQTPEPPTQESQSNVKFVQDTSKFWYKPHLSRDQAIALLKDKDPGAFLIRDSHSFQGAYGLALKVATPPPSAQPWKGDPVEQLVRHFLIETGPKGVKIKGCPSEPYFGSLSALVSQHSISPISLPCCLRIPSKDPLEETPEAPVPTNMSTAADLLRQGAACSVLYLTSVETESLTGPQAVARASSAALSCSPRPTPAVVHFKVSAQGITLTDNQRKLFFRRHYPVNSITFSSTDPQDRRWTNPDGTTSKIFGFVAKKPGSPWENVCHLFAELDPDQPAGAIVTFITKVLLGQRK
The test is described as follows: co-IP; co-overexpression in HEK293T cells; lysates pre-cleared with protein G or A beads, antibody overnight at 4 °C in lysis buffer with protease inhibitors, protein G or A beads (GFP-Trap agarose for GFP fusions), washed four times, immunoblot; confirmatory co-IPs for several pairs; DLC1 with CAV1 also reciprocal in cells pre- and post-treated with 100 uM dexamethasone, results not altered. (A western blot detects proteins with antibodies after separation by electrophoresis.)

The target of test [2] is T2, TNS2 mutant p.Arg292Gln (not stated (human or mouse cDNA cloned)) (UniProt Q63HR2).
T2 sequence: T1 sequence with R292Q, M858I
Described as above.

Regarding “MAGI2 wild type (rat Magi2, S-SCAM, full-length cDNA) (from UniProt O88382 1-1277)”, the binding entry in test [1] and in test [2] was “binds” each time.
